These are yes or no findings as the source states them, for the method shown. In cells and extracts the contact can be indirect. Binding can be weak; no strength is given. For some assays here: Sequences can lack the tags named with a protein.
B1: C-terminally TagRFP-tagged mouse GIT2, transcript variant 1 (protein, UniProt Q9JLQ2 1-708)
chain: MSKRLRSSDVCADCNGPDPSWASVNRGTFICDECCSVHRSLGRHISQVRHLKHTAWPPTLLQMVETLYNNGANSIWEHSLLDPASIMSGRRKANPQDKVHPNKAEFIRAKYQMLAFVHRLPCREDDSVTAKDLSKQLHSSVRTGNLETCLRLLSLGAQANFFHPEKGSTPLHVASKAGQILQAELLAVYGADPGTQDSSGKTPVDYARQGGHHELAERLIEIQYELTDRLAFYLCGRKPDHKSGQHFLIPQRADSLDLSELAKAAKKKLQSLSNHLFEELAMDVYDEVDRRETDAVWLATQNHSTLVTETTVVPFLPVNPEYSSTRNQGRQKLARFNAHEFATLVIDILSDAKRRQQGSPLSRSKDNVELILRTVSTQHSTESQDNDQPDYDSVASDEDTDVETRASKANRQKLQTLQSENSSLRRQATASACQVQTGSDHKDTASHSSLKRRPSARGSRPMSMYETGSGQKPYLPMGEASHPEESRTRLQPFPTHIGRSALVTSSSSLPSFPSTLSWSRDESARRASRLEKQNSTPESDYDNTACDPEPDDTGSTRKGRQRSMLWQGDGLLPDTAEPHSVPSPTLPSTEDVIRKTEQITKNIQELLRAAQENKHDSYIPCSERIHVAVTEMAALFPKKPKSDTVRTSLRLLTSSAYRLQSECRKALPGDSSLPTDVQLVTQQVIQCAYDIAKAAKQLVTITTKENSS
B2: G protein-coupled receptor kinase-interacting protein 2 (GIT2), GIT2-long, endogenous (protein, UniProt Q9JLQ2 1-708)
chain: B1 chain

Sequences of proteins named here, by UniProt entry; tags and fusion partners are left off. A change or cut given only in a name is not applied to a line headed by its entry.
UniProt P83887: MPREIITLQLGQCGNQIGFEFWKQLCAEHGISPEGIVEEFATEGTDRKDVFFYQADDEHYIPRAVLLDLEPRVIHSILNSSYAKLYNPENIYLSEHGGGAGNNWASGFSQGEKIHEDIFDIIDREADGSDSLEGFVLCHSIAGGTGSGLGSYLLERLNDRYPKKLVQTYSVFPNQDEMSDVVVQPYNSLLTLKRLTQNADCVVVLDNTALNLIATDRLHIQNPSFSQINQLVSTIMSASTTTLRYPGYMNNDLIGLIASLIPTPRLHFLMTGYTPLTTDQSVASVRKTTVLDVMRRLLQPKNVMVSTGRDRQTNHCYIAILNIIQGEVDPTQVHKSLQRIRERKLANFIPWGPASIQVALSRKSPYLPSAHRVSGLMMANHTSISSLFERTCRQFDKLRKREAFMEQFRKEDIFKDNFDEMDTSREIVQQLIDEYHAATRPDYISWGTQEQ

Columns and labels:
[1] = molecular target: γ-tubulin, endogenous (mouse (endogenous in BMMCL)) (UniProt P83887); experiment: co-IP; whole-cell extracts of cells expressing GIT2-TagRFP or TagRFP alone; protein A beads with rabbit Ab to tRFP or mAb to γ-tubulin; immunoblot
[2] = molecular target: γ-tubulin, endogenous (mouse (endogenous in BMMCL)) (UniProt P83887); experiment: co-IP; whole-cell 1% NP-40 extracts of BMMCL (HEPES buffer pH 7.6, 75 mM NaCl, 1 mM MgCl2, 1 mM EGTA) incubated with protein A beads saturated with rabbit Ab to GIT2 or mouse mAb TU-31 to γ-tubulin; endogenous proteins; immunoblot

Binder | binding [1] | binding [2]
B1 | binds | –
B2 | – | binds

Reference: publication PMC10870779
